How the values were obtained:
[1] = RRT study: LC-MS/MS urinary proteomics, AKI after cardiac surgery, RRT vs No RRT; set-up: species or system human; details: for Mean No RRT / Mean RRT: urine; for Mean No RRT: AKI patients who did not require RRT (n=6); for Mean RRT: AKI patients who required RRT (n=6)
[2] = Candidate marker selection across the three proteomic studies (FIG. 8); details: inventors' proteomic studies
[3] = Urinary angiotensinogen ELISA corrected for urine creatinine (uAnCR), AKI after cardiac surgery; set-up: species or system human
[4] = RRT vs No RRT, positive = elevated in RRT group
[5] = direction of urinary abundance, patients who did vs did not require RRT/dialysis
[6] = patients who did vs did not require RRT/dialysis, read with the Up or Down column

B1: Secreted Ly-6/uPAR-related protein 1: urinary protein, Uniprot P55000 (protein, UniProt P55000 23-103, looked up)
Secreted Ly-6/uPAR-related …: LKCYTCKEPMTSASCRTITRCKPEDTACMTTLVTVEAEYPFNQSPVVTRSCSSSCVATDPDSIGAAHLIFCCFRDLCNSEL
Question: With B1 as the molecule, how does the “Mean Fold Change” value [1, 4] read?
Answer: The value was −1.414.

Question: What about the “Up or Down” value [1, 5] of the same molecule?
Answer: The value was “Down”.

Question: What about the “Mean Fold Change” value [1, 6] of the same molecule?
Answer: The value was 4.241.

Question: And the “Mean No RRT” value [1]?
Answer: Its value is 4.49 normalized spectral counts.

Question: What about the “Mean RRT” value [1] of the same molecule?
Answer: Its value is 3.18 normalized spectral counts.

Question: And the “change of the protein in urine in AKI” value [2]?
Answer: Its value is “decrease”.

B2: Angiotensinogen: urinary protein biomarker, Uniprot P01019; uAnCR = urine angiotensinogen-to-creatinine ratio (protein)
chain: MRKRAPQSEMAPAGVSLRATILCCLLAWAGLAAGDRVYIHIPFHLVIHNESTCEQLAKANAGKPKDPTFIPAPIQAKTSPVDEKALQDQLVLVAAKLDTEDKLRAAMVGMLANFLGFRIYGMHSELWGVVHGATVLSPTAVFGTLASLYLGALDHTADRLQAILGVPWKDKNCTSRLDAHKVLSALQAVAQGLLVAQGRADSQAQLLLSTVVGVFTAPGLHLKQPFVQGLALYTPVVLPRSLDFTELDVAAEKIDRFMQAVTGWKTGCSLMGASVDSTLAFNTYVHFQGKMKGFSLLAEPQEFWVDNSTSVSVPMLSGMGTFQHWSDIQDNFSVTQVPFTESACLLLIQPHYASDLDKVEGLTFQQNSLNWMKKLSPRTIHLTMPQLVLQGSYDLQDLLAQAELPAILHTELNLQKLSNDRIRVGEVLNSIFFELEADEREPTESTQQLNKPEVLEVTLNRPFLFAVYDQSATALHFLGRVANPLSTA
Question: With B2 as the molecule, how does the “uAnCr (median)” value ([3]; maximum AKIN Stage 1, AKI of any stage at sample collection) read?
Answer: The value was 22.6 ng/mg.

Question: And the “uAnCr (median)” value ([3]; maximum AKIN Stage 1, AKIN Stage 1 at sample collection)?
Answer: The value was 22.6 ng/mg.

Question: What about the “uAnCr (median)” value ([3]; maximum AKIN Stage 2, AKI of any stage at sample collection) of the same molecule?
Answer: The value was 34.1 ng/mg.

Question: What about the “uAnCr (median)” value ([3]; maximum AKIN Stage 2, AKIN Stage 1 at sample collection) of the same molecule?
Answer: The value was 35.3 ng/mg.

Question: What about the “uAnCr (median)” value ([3]; maximum AKIN Stage 3, AKI of any stage at sample collection) of the same molecule?
Answer: The value was 58.8 ng/mg.

Question: And the “uAnCr (median)” value ([3]; maximum AKIN Stage 3, AKIN Stage 1 at sample collection)?
Answer: Its value is 77.0 ng/mg.

Question: And the “Mean Fold Change” value [1, 4]?
Answer: Its value is 9.674.

Question: What about the “Up or Down” value [1, 5] of the same molecule?
Answer: The value was “Up”.

Question: And the “Mean Fold Change” value [1, 6]?
Answer: Its value is 29.02.

Question: And the “Mean No RRT” value [1]?
Answer: The value was 1.69 normalized spectral counts.

Question: And the “Mean RRT” value [1]?
Answer: Its value is 16.33 normalized spectral counts.

B3: CD59 glycoprotein: urinary protein, binds and neutralizes the membrane attack complex (protein, UniProt P13987 26-102, looked up)
CD59 glycoprotein: LQCYNCPNPTADCKTAVNCSSDFDACLITKAGLQVYNKCWKFEHCNFNDVTTRLRENELTYYCCKKDLCNFNEQLEN
Question: Which results are given for B3?
Answer: Up or Down ([1]; direction of differential abundance, patients who did vs did not require RRT/dialysis): Down; Mean Fold Change ([1]; patients who did vs did not require RRT/dialysis): 1.699; change of the protein in urine in AKI [2]: decrease

From US20140038203A1, “METHODS FOR DETECTING OR PREDICTING KIDNEY DISEASE” (MUSC FOUNDATION FOR RESEARCH DEVELOPMENT, priority 2012, published 2014)
